Data taken from PubChem BioAssay AID977624, deposited by Broad Institute (2014).

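Wild-type E. coli carrying GFP, grown in the same well as an h34 humanized-ribosome RFP strain; GFP fluorescence for growth, read after 24 h. The value is the change in activity at the highest dose tested; more negative means stronger inhibition. Active requires GFP to fall at least twice as much as RFP with growth loss below a set limit; inconclusive means no clear call; everything else is inactive.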

Only part of the assay is shown, chiefly results filed as inconclusive.

structure,tested on / at,activity change,outcome
O=C(NCCCn1ccnc1)c1sc2cc([N+](=O)[O-])ccc2c1Cl,at 50 µM (top of the series),32.62,inconclusive
COc1cc(O)c2c(c1)/C=C/C[C@H](O)[C@H](O)C(=O)CCC[C@H](C)OC2=O,at 50 µM (top of the series),4.134,inconclusive
CCc1nnc(NC(=O)CSc2ncc(-c3ccccc3)[nH]2)s1,at 50 µM (top of the series),-1.157,inactive
CC1CCC(C(C)C)C(OCC(O)CN2CCCC(C)C2)C1 (stereo not shown),at 50 µM (top of the series),12.01,inconclusive
COc1ccc(-n2c(COc3cccc(C)c3)n[nH]c2=S)cc1,at 50 µM (top of the series),49.45,inconclusive
Cc1cccc(-c2cc3nc4c(c(N5CCOCC5)n3n2)CCCC4)c1,at 50 µM (top of the series),45.27,inconclusive
O=C1c2cccc3cccc(c23)C(=O)N1CCCn1ccnc1,at 50 µM (top of the series),16.54,inconclusive
Cc1ccc(NC(=O)C[n+]2cc(-c3ccccc3)n3c2CCC3)c(C)c1,at 50 µM (top of the series),22.71,inconclusive
CCc1cccc(NC(=O)CN(C)S(=O)(=O)c2cccc3cccnc23)c1,at 50 µM (top of the series),12.97,inconclusive
COc1ccc(C(=O)n2cnc3ccccc32)cc1[N+](=O)[O-],at 50 µM (top of the series),37.98,inconclusive
CCN(c1ccccc1)S(=O)(=O)c1cccc(C(=O)NCC(c2cccs2)N(C)C)c1 (stereo not shown),at 50 µM (top of the series),25.75,inconclusive
Cc1cc(C(=O)Nc2cccc3c2O[C@H](CN(C)S(=O)(=O)c2ccc(Cl)cc2)[C@H](C)CN([C@@H](C)CO)C3=O)n(C)n1,at 50 µM (top of the series),-14.93,inconclusive
O=C(NC1CCCCC1)C(c1cccc2ccccc12)n1c(=O)c(-c2ccco2)nc2ccccc21 (stereo not shown),at 50 µM (top of the series),23.4,inconclusive
COc1ccc(CNc2cc([N+](=O)[O-])ccc2OC)cc1,at 50 µM (top of the series),-1.841,inactive
COc1ccc(C(=O)Nc2nc3ccc(OC)cc3s2)cc1,at 50 µM (top of the series),-33.89,inconclusive
COc1cccc(-c2ccc(NC(=O)C3CCCN(Cc4cnn(C(C)C)c4)C3)cc2)c1 (stereo not shown),at 50 µM (top of the series),4.29,inconclusive
Cc1csc2c(N3CCC(C(=O)O)CC3)ncnc12,at 50 µM (top of the series),26.41,inconclusive
O=C(N[C@@H](Cc1ccccc1)C(=O)OCc1ccccc1)c1nc[nH]c1C(=O)NC1CCNCC1,at 50 µM (top of the series),7.479,inactive
Cc1cccc(NC(=O)c2sc3nc(-c4ccccc4)cn3c2C)n1,at 50 µM (top of the series),13.13,inconclusive
CNC(=O)c1ccsc1NC(=O)c1ccc(S(=O)(=O)N2CCc3ccccc32)cc1,at 50 µM (top of the series),23.6,inconclusive
O=C(Cc1coc2ccc3ccccc3c12)NCc1ccccc1,at 50 µM (top of the series),-28.21,inconclusive
Cc1cccc(S(=O)(=O)Nc2ccc(-c3cn4ccccc4n3)cc2)c1,at 50 µM (top of the series),-15.13,inconclusive
Oc1ccccc1Oc1ncc(Br)c(Cl)n1,at 50 µM (top of the series),23.93,inconclusive
C=CCn1c(SCC(=O)N2CCCC2=O)nc2sc(CC)cc2c1=O,at 50 µM (top of the series),24.21,inconclusive
CCn1c(CNC(=O)c2ccccc2F)cc2cc(C)ccc21,at 50 µM (top of the series),21.25,inconclusive
CCCN(CC(=O)Nc1ccccc1C)C(=O)c1cccc(S(=O)(=O)N2CCc3ccccc3C2)c1,at 50 µM (top of the series),-22.67,inconclusive
Cc1ccccc1OCc1nc2ccccc2n1C,at 50 µM (top of the series),-7.765,inconclusive
COc1cc(C(=O)NCCc2c[nH]c3ccccc23)ccc1OCc1c(C)noc1C,at 50 µM (top of the series),-8.681,inconclusive
CC(=O)Nc1cccc(NC(=O)CCN2C(=O)c3ccccc3S2(=O)=O)c1,at 50 µM (top of the series),32.43,inconclusive
CCN(CC)S(=O)(=O)c1ccc(N2CCCC2)c(NC(=O)c2ccc([N+](=O)[O-])o2)c1,at 50 µM (top of the series),-1.64,inconclusive
COc1ccc(OCC2c3cc(OC)c(OC)cc3CCN2C(=O)C(C)C)cc1 (stereo not shown),at 50 µM (top of the series),17.96,inconclusive
COC(=O)c1cn(C(=O)c2ccc(OC)cc2)c2ccccc12,at 50 µM (top of the series),12.33,inactive
c1ccc(-c2sc3ccccc3c2-c2ccc(OCCN3CCCCC3)cc2)cc1,at 50 µM (top of the series),25.47,inconclusive
COC(=O)C[C@H]1C[C@@H]2c3cc(NC(=O)Nc4ccc(C(F)(F)F)cc4)ccc3O[C@@H]2[C@H](CO)O1,at 50 µM (top of the series),8.541,inconclusive
Cc1[nH]nc2c1C(c1ccc(F)cc1)N(Cc1ccccc1)C2=O (stereo not shown),at 50 µM (top of the series),-0.976,inconclusive
Cc1ccoc1C(=O)Nc1ccc2ccccc2c1,at 50 µM (top of the series),20.01,inconclusive
O=C(C[n+]1cc(-c2ccc(F)cc2)n2c1CCC2)c1cccs1,at 50 µM (top of the series),77.42,inconclusive
CN(C)CCCn1c(=O)n(Cc2ccco2)c(=O)c2c3c(sc21)CCCCC3,at 50 µM (top of the series),-1.502,inactive
NC(=O)c1ccccc1OCCOc1ccc(Br)cc1,at 50 µM (top of the series),21.08,inconclusive
COc1ccc(C(=O)C[n+]2ccc3c(c2)nc(-c2cc(OC)c(OC)cc2OC)n3C)cc1,at 50 µM (top of the series),15.85,inconclusive
Cc1ccc(NC(=O)c2ccc(NCCCN3CCC(C)CC3)c([N+](=O)[O-])c2)cc1F,at 50 µM (top of the series),13,inconclusive
Fc1ccc(-c2nc3ccc(Cl)cn3c2Cc2cccc(Cl)c2)cc1,at 50 µM (top of the series),2.688,inconclusive
c1ccc(CNc2ncnc3sccc23)cc1,at 50 µM (top of the series),2.355,inconclusive
CCN(CC)c1nc(Oc2ccc(C(=O)OC)cc2)nc(N2CCOCC2)n1,at 50 µM (top of the series),-1.76,inconclusive
O=C(Nc1c(S(=O)(=O)c2ccc(Cl)cc2)csc1Br)c1ccccc1Cl,at 50 µM (top of the series),26.32,inconclusive
CN(c1ccccc1)S(=O)(=O)c1cccc(NC(=O)CCNC(=O)c2ccc([N+](=O)[O-])cc2)c1,at 50 µM (top of the series),11.85,inactive
COc1ccc(OC2C(=O)N(Cc3ccc4c(c3)OCO4)C2c2sccc2C)cc1 (stereo not shown),at 50 µM (top of the series),-1.697,inconclusive

The last 5 entries again:

structure	tested on / at	activity change	outcome
c1ccc(CNc2ncnc3sccc23)cc1	at 50 µM (top of the series)	2.355	inconclusive
CCN(CC)c1nc(Oc2ccc(C(=O)OC)cc2)nc(N2CCOCC2)n1	at 50 µM (top of the series)	-1.76	inconclusive
O=C(Nc1c(S(=O)(=O)c2ccc(Cl)cc2)csc1Br)c1ccccc1Cl	at 50 µM (top of the series)	26.32	inconclusive
CN(c1ccccc1)S(=O)(=O)c1cccc(NC(=O)CCNC(=O)c2ccc([N+](=O)[O-])cc2)c1	at 50 µM (top of the series)	11.85	inactive
COc1ccc(OC2C(=O)N(Cc3ccc4c(c3)OCO4)C2c2sccc2C)cc1 (stereo not shown)	at 50 µM (top of the series)	-1.697	inconclusive